Where “and” joins values, the source holds several entries; their conditions need not be identical. Identical values can stand only once. Like-named read-outs stand apart in the source and are kept apart here.
Legend:
[1] = 5-minute topical application, plasma
in vivo = settings: white Landrance, pig, plasma, topical or ocular, 5 % scopolamine HBr solution on 15 cm^2 (volume not stated), group mean; for Cmax: peak plasma concentration (Cmax), 5-minute topical application
[2] = Control (gel only + scopolamine), individual pigs 3A-1A
[3] = Test-cnidocyst preparation, individual pigs 7A-4A

## CN1[C@@H]2C[C@@H](OC(=O)[C@H](CO)c3ccccc3)C[C@H]1[C@@H]1O[C@@H]12 [scopolamine]
[1]; [2]
  AUC0-24: 816.1 hrX{pcg/ml} and 911.5 hrX{pcg/ml} and 1191.5 hrX{pcg/ml}
  AUCINF: 946.5 hrX{pcg/ml} and 1028.7 hrX{pcg/ml} and 1316.9 hrX{pcg/ml}
  Cmax: 148.4 {pcg/ml} and 98.4 {pcg/ml} and 155 {pcg/ml}
[1]; [3]
  AUC0-24: 1155.3 hrX{pcg/ml} and 970.1 hrX{pcg/ml} and 2488.9 hrX{pcg/ml} and 1973.0 hrX{pcg/ml}
  AUCINF: 1289.9 hrX{pcg/ml} and 1093.1 hrX{pcg/ml} and 2628.7 hrX{pcg/ml} and 2320.8 hrX{pcg/ml}
  Cmax: 486.6 {pcg/ml} and 239.5 {pcg/ml} and 855.3 {pcg/ml} and 419.5 {pcg/ml}
In vivo; Cnidocysts-recipient animals
  Cmax: 0.5 ± 0.258 ng/mL
In vivo; control animals (gel and scopolamine only)
  Cmax: 0.107 ± 0.061 ng/mL
In vivo; time to maximal concentration (Tmax), control animals (gel and scopolamine only)
  Tmax: 2.7 ± 1.5 h
